The values below come from paper PMC10367561.

Amino acid sequences for entries named in this document (tags omitted). A change or cut given only in a name is not applied to a line headed by its entry.
UniProt Q9HAU4: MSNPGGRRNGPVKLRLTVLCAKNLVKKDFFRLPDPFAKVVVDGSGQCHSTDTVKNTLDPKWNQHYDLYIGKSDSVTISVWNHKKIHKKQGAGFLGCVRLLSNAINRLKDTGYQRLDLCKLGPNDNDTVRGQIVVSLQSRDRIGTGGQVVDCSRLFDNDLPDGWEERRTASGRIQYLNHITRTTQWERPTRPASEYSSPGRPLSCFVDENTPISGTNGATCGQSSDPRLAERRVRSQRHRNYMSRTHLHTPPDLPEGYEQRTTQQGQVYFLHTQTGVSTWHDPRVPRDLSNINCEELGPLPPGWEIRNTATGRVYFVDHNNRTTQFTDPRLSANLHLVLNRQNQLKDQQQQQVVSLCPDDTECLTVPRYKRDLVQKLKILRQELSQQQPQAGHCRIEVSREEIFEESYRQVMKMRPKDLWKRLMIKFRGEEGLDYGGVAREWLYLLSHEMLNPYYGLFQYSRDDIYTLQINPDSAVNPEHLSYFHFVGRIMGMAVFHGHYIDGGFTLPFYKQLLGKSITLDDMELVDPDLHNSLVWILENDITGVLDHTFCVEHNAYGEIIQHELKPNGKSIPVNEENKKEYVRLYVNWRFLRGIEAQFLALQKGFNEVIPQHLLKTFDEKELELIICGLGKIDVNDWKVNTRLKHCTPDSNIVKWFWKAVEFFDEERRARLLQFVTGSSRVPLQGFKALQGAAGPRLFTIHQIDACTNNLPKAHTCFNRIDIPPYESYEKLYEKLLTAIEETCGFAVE
UniProt P15923: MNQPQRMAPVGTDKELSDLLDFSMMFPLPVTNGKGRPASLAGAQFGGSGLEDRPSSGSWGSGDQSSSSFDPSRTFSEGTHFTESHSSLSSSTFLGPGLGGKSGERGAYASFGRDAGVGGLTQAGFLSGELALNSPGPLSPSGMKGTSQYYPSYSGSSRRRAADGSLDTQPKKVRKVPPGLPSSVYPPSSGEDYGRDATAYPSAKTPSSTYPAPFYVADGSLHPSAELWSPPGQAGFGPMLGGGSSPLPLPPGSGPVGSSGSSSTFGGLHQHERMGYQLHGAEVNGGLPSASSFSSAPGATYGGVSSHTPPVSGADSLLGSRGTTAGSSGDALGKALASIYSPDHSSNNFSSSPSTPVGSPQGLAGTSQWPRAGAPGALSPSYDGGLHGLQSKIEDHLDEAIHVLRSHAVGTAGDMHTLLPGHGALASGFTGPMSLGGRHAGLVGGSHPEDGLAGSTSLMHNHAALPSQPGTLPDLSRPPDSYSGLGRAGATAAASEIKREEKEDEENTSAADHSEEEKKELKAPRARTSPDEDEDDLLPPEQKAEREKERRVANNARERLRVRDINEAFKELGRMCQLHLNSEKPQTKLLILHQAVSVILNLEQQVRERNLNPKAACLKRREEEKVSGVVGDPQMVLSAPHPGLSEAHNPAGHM

For assay [1], the target named is T1, ID2, endogenous (human (endogenous in A549 and H460)) (UniProt Q02363).
T1 sequence: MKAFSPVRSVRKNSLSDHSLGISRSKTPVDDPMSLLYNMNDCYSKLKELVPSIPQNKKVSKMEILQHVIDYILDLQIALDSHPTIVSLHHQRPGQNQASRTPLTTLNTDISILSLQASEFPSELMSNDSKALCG
Kind of assay: co-IP; endogenous proteins, A549 and H460 cells; IP and western blot; the precipitating antibody is not given.

Assay [2] addresses T2, GFP-tagged full-length human ID2 (inhibitor of DNA binding 2) (human) (UniProt Q02363).
T2 sequence: T1 sequence
Kind of assay: co-IP; cells co-transfected with Flag-SMURF2 (or its truncated fragments) and ID2 (GFP-ID2) plasmids, HEK293T and A549; IP with anti-Flag or anti-ID2 antibody; IP lysis buffer 0.025 M Tris, 0.15 M NaCl, 0.001 M EDTA, 1% NP-40, 5% glycerol; overnight at 4°C; western blot. (In general: Immunoblotting shows a protein as a band on a membrane.)

Assay [3] deals with T1, ID2, endogenous (human (endogenous in A549 and H460)). The assay is described as follows: co-IP; endogenous proteins, A549 cells; IP with anti-SMURF2 or anti-ID2 antibody; western blot.
For assay [4] the target is unchanged. The assay is described as follows: proximity ligation; Duolink In situ Red kit, A549 cells; anti-SMURF2 (rabbit) and anti-ID2 (mouse); signal means a distance smaller than 40 nm.
Assay [5] addresses Flag-tagged SMURF2 (SMAD specific E3 ubiquitin protein ligase 2) (human) (UniProt Q9HAU4). Kind of assay: co-IP; cells co-transfected with Flag-SMURF2 (or its truncated fragments) and ID2 (GFP-ID2) plasmids, HEK293T and A549; IP with anti-Flag or anti-ID2 antibody; IP lysis buffer 0.025 M Tris, 0.15 M NaCl, 0.001 M EDTA, 1% NP-40, 5% glycerol; overnight at 4°C; western blot.
Assay [6] concerns the target HECT domain of SMURF2 (Flag-tagged truncated fragment) (human) (UniProt Q9HAU4). The description is as above.
Assay [7] deals with SMURF2, endogenous (human (endogenous in A549)) (UniProt Q9HAU4). The assay is described as follows: co-IP; endogenous proteins, A549 cells; IP with anti-SMURF2 or anti-ID2 antibody; western blot.

No constants are given. Whether binding was seen depends on the method and setting. Binding seen in cells or lysates may run through a third protein. Some entries that bind do so weakly or less than the wild type. For some assays here: Tags and fused reporters may be left off the sequences shown.

In the case of “E2A, endogenous (from UniProt P15923 1-654)”, the binding entry in assay [1] is “binds”.

On to “Flag-tagged SMURF2 (SMAD specific E3 ubiquitin protein ligase 2) (from UniProt Q9HAU4 1-748) (enzyme)”, for which the binding result in assay [2] was “binds”. The same measure, in the same setting: to “HECT domain of SMURF2 (Flag-tagged truncated fragment) (from UniProt Q9HAU4 366-748) (domain or fragment)” belongs “binds”. For “SMURF2, endogenous (from UniProt Q9HAU4 1-748) (enzyme)”, the binding result in assay [3] and in assay [4] was “binds” each time.

B1: GFP-tagged full-length human ID2 (inhibitor of DNA binding 2) (protein, UniProt Q02363 1-134)
chain: T1 sequence
In the case of B1, the binding result in assay [5] and in assay [6] was “binds” each time.

B2: ID2, endogenous (protein, UniProt Q02363 1-134)
chain: T1 sequence
Turning to B2, the binding entry in assay [7] is reported as “binds”.
